Results: PubChem BioAssay AID2662 (National Center for Advancing Translational Sciences (NCATS), 2010)
The campaign covered roughly 290,000 compounds. About 110 (0.038%) were called active. The inconclusive results got no clear call from the source; some entries with a clear call stand among them for comparison. Calls follow the shape of the dose curve; as a rule, active = well fitted inhibition curve with a large enough effect in the polarisation, with a control signal flat (not every such curve was filed as active); inconclusive = small, poorly fitted or top-dose-only effect, or effect the other way, or a change in a side signal; inactive = no such curve, though single readings can be large or run the other way; the % refers to the polarisation. Potencies beside an inconclusive call are fits to weak or partial responses and may not hold up. A note “side channel” means that the fit belongs to a control or component signal, not to the main read-out. *1 amine or outer side, *2 acyl side, *3 side chain or, on linkers, in order; H or OH if unused. Where a SMILES comes first, the peptide text is derived from it. Bridges are numbered along the chain shown (N, C = ends). Roman numbers before positions name the chains, in order. [ ]: non-standard residue; d: D form. The star is where a group is joined. Actinocin(9to1) = Cc1c2oc3c(C)ccc(C(=O)[*:1])c3nc-2c(C(=O)[*:2])c(N)c1=O; Hyp = O=C(O)[CH]1C[CH](O)CN1; NMeV = CN[C@H](C(=O)O)C(C)C; Cbz = O=C(OCc1ccccc1)*; OBn = c1ccc(CO*)cc1; Sar = CNCC(=O)O

Amino acid sequences for entries named in this document (tags omitted).
UniProt Q03164, whole entry, looked up: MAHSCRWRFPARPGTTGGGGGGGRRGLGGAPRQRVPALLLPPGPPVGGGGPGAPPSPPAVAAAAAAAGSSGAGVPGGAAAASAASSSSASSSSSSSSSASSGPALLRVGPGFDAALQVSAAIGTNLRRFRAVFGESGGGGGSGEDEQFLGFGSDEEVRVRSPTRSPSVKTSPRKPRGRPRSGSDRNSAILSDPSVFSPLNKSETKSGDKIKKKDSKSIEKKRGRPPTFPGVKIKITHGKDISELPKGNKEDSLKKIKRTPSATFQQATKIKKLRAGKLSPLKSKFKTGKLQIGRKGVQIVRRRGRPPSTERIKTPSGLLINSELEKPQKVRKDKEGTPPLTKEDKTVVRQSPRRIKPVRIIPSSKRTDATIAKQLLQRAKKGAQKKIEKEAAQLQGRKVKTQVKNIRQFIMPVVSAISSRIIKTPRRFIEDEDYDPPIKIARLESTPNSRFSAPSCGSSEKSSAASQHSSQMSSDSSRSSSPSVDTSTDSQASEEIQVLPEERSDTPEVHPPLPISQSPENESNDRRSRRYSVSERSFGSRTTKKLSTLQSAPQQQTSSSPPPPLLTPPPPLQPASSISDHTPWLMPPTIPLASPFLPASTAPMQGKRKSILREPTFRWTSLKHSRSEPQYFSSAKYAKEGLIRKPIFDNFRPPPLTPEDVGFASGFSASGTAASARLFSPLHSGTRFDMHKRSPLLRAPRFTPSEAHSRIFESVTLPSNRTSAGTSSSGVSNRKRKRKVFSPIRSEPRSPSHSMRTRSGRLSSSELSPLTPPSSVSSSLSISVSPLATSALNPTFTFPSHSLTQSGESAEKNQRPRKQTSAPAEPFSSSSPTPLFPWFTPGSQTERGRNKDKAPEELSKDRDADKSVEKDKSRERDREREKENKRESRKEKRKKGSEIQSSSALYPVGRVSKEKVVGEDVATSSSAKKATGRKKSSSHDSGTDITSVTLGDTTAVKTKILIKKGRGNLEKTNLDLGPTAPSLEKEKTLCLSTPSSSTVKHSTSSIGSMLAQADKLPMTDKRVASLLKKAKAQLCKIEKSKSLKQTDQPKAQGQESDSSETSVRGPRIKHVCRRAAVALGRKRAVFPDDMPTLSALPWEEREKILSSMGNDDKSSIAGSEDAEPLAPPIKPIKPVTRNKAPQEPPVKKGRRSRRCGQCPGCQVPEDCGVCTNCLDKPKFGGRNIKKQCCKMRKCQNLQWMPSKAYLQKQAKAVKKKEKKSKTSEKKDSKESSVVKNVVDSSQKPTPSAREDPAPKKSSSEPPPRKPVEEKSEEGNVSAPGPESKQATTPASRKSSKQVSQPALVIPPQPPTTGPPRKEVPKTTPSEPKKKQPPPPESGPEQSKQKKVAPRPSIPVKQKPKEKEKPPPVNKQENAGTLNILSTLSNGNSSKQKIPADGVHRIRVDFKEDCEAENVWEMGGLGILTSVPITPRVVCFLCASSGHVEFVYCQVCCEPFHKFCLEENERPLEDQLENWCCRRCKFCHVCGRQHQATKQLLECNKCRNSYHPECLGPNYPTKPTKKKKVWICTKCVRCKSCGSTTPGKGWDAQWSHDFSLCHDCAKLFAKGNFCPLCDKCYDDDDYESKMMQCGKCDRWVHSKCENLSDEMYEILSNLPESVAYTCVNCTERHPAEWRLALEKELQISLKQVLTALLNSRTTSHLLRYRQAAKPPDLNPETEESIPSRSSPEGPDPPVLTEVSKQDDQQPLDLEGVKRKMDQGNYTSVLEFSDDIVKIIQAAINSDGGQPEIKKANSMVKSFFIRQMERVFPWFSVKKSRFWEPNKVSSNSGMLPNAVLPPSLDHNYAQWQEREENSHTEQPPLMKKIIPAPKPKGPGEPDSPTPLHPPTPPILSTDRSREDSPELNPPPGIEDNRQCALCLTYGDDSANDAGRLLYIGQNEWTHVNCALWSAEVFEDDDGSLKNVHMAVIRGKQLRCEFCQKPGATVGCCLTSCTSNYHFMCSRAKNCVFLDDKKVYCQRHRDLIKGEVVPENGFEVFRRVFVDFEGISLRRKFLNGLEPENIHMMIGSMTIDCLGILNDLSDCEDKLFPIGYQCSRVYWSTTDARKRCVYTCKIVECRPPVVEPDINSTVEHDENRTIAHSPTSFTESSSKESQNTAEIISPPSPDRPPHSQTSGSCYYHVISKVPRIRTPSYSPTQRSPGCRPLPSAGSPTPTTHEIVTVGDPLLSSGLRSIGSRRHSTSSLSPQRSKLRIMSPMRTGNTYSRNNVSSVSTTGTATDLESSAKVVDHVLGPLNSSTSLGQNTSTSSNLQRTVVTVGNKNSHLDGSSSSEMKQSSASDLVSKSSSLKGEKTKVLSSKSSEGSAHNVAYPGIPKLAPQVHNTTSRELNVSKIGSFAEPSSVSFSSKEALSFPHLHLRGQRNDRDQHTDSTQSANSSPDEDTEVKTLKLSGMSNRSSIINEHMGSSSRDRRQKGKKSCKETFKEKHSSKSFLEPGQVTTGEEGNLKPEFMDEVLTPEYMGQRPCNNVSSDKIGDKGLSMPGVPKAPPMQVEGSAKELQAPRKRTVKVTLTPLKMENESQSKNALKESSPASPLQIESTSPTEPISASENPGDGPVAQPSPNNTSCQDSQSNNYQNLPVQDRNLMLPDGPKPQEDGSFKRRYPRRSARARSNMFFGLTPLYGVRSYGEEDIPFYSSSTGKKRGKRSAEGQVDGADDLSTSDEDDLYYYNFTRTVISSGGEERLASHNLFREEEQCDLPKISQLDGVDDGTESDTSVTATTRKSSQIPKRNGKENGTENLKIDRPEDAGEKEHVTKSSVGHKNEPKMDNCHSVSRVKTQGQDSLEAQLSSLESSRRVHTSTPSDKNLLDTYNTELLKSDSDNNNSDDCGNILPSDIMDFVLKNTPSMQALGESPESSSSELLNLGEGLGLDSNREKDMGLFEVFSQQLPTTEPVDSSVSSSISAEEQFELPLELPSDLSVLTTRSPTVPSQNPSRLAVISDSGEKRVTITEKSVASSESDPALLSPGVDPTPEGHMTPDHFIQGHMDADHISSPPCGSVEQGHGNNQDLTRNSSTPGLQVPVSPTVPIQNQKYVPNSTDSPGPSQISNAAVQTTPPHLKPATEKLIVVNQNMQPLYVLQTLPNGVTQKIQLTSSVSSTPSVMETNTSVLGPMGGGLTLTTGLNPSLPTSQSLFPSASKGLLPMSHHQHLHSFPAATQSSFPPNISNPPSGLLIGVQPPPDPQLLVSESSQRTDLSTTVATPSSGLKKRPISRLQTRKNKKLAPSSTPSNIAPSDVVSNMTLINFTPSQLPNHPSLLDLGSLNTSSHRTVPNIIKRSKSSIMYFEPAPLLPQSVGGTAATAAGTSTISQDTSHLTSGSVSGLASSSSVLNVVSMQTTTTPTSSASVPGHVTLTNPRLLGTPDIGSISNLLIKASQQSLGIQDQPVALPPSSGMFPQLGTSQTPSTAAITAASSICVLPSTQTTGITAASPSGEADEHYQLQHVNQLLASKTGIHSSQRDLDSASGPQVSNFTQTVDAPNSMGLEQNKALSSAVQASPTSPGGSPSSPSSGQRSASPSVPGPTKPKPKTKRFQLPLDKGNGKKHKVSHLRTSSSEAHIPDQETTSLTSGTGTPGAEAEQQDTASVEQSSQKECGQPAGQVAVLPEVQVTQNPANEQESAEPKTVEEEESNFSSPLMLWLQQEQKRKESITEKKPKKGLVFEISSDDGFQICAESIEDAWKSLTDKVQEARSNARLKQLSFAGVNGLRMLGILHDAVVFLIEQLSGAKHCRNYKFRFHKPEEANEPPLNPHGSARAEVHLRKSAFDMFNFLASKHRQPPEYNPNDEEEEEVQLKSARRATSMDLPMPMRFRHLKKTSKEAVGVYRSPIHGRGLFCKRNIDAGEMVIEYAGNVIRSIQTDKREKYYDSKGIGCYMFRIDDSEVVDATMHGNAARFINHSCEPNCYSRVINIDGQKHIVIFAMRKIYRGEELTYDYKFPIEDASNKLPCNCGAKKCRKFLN

target: Histone-lysine N-methyltransferase 2A (Homo sapiens) (UniProt Q03164); test: qHTS Fluorescence Polarization Assay for Inhibitors of MLL CXXC domain - DNA interaction; conditions: MLL-CXXC / FITC-HOXA9 DNA fluorescence polarization; series mostly up to 115 µM
In short: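 Purified MLL-CXXC (added from a 7 uM solution) was preincubated 5 min at ambient with pinned compounds in 50 mM Tris-HCl pH 7.5, 50 mM NaCl, 1 mM DTT, 0.05% BSA. Fluorescein-labeled HOX-A9 DNA (50 nM solution) followed, 30 min, then polarization read.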
Potency is read from the fitted curve at half-maximal effect.

**Q.** With `Cc1cc2n(n1)C(c1ccc3c(c1)OCO3)Nc1ccccc1-2` (stereo unspecified) as the compound, how does the Potency read?
**A.** inactive

**Q.** For `CCC1CCCCN1C(=S)Nc1ccc(S(=O)(=O)Nc2ncccn2)cc1` (stereo unspecified), which Potency is on record?
**A.** inactive

**Q.** For `Cc1c(CCO)c(=O)[nH]n1S(=O)(=O)c1ccc(F)cc1`, which Potency is on record?
**A.** inconclusive: 89.1 µM [quencher, side channel, single point]

**Q.** For `O=C(NCc1ccco1)c1cc2nc(-c3cccs3)cc(C(F)(F)F)n2n1`, which Potency is on record?
**A.** inactive

**Q.** How did the Potency turn out when `COC(=O)/C=C/c1cnc2ccccc2c1` was run?
**A.** inconclusive: 70.8 µM [fluorescent, side channel, single point]

**Q.** How did the Potency turn out when `COc1ccccc1NC(=O)c1ccc(COc2ccc3c(c2)CCC3)cc1` was run?
**A.** inactive

**Q.** Which Potency does the source give for `CCCNC(=O)c1oc2ccc3c(c2c1C)C(=O)CC(C)(C)O3` here?
**A.** inactive

**Q.** For `O=[N+]([O-])c1cccc(-c2cn3nc(-c4ccccc4)c(-c4ccccc4)nc3n2)c1`, which Potency is on record?
**A.** active: 39.8 µM

**Q.** With `COc1ccc(-[n+]2c(C)cc(/C=C3\Sc4ccccc4N3C)cc2C)cc1` as the compound, how does the Potency read?
**A.** inconclusive: 39.8 µM [fluorescent, side channel, partial curve]

**Q.** With `O=C(NCC(=O)N1CC(O)CC1C(=O)N1CC(O)CC1C(=O)OCc1ccccc1)OCc1ccccc1` (stereo not drawn) (Cbz-Gly-[Hyp]-[Hyp]-OBn; configuration not given here) as the compound, how does the Potency read?
**A.** inconclusive: 12.6 µM [fluorescent, side channel, partial curve, poor fit]

**Q.** `CC1CCN(S(=O)(=O)c2ccc3c(c2)c(=O)c(C(=O)N2CCCCC2)cn3C)CC1` was tested. Which Potency did it give?
**A.** inactive

**Q.** How did the Potency turn out when `CCOc1ccc2[nH]c(=O)c(CN(CCOC)C(=O)N3CCOCC3)cc2c1` was run?
**A.** inactive

**Q.** With `CC(=O)c1c(C)[nH]c(C(=O)CSc2ccc(F)cc2)c1C` as the compound, how does the Potency read?
**A.** inconclusive: 1 µM [quencher, side channel, full curve, poor fit]

**Q.** How did the Potency turn out when `Cn1ccnc1C(=O)c1ccc(NN)c([N+](=O)[O-])c1` was run?
**A.** inconclusive: 89.1 µM [inhibitor, single point]

**Q.** With `CN(C)CCCn1c(SCC(=O)N2CC(=O)Nc3ccccc32)nc2ccccc2c1=O` as the compound, how does the Potency read?
**A.** inconclusive: 2.51 µM [fluorescent, side channel, full curve]

**Q.** How did the Potency turn out when `COc1ccc(S(=O)(=O)Nc2ccccc2Cl)cc1NC(C)=O` was run?
**A.** inconclusive: 6.31 µM [fluorescent, side channel, partial curve]

**Q.** `Cc1c(C(=O)N(CCc2ccccc2)Cc2ccccc2)cccc1[N+](=O)[O-]` was tested. Which Potency did it give?
**A.** inconclusive: 89.1 µM [quencher, side channel, single point]

**Q.** How did the Potency turn out when `Cc1cc(=O)oc(C)c1C(=O)NCCCN1C(C)CCCC1C` (stereo unspecified) was run?
**A.** inconclusive: 15.8 µM [fluorescent, side channel, single point]

**Q.** Which Potency does the source give for `Cc1nc(N=Nc2cc(S(=O)(=O)O)c3cc([N+](=O)[O-])cc(S(=O)(=O)O)c3c2)c(COP(=O)(O)O)c(C=O)c1O` here?
**A.** active: 31.6 µM

**Q.** With `O=C(Nc1cccc(Cl)c1)C1CCCN(S(=O)(=O)c2ccc(F)cc2)C1` (stereo unspecified) as the compound, how does the Potency read?
**A.** inconclusive: 70.8 µM [inhibitor, single point]

**Q.** With `O=C(NCc1cccnc1)NC(=O)c1ccc(Cl)cc1` as the compound, how does the Potency read?
**A.** inconclusive: 8.91 µM [fluorescent, side channel, single point]

**Q.** For `Cc1ccc(S(=O)(=O)NNC(=O)c2sc(NS(=O)(=O)c3ccccc3)nc2C)cc1`, which Potency is on record?
**A.** inconclusive: 39.8 µM [fluorescent, side channel, single point]

**Q.** Which Potency does the source give for `CC(C)[C@H](NC(=O)N1CCn2c1nc1ccccc12)C(=O)N[C@H](C(=O)O)c1ccccc1` here?
**A.** inconclusive: 7.08 µM [fluorescent, side channel, full curve]

**Q.** For `CC1C/C(=N\NC(N)=S)c2cc(Cl)ccc2S1` (stereo unspecified), which Potency is on record?
**A.** inactive

**Q.** `O=C1c2ccccc2C(=O)c2c1cccc2N(CCO)CCO` was tested. Which Potency did it give?
**A.** inconclusive: 39.8 µM [inhibitor, partial curve]

**Q.** Which Potency does the source give for `COc1ccc(S(=O)(=O)N(C)c2ccc(C(=O)N3CCCC3)cc2)cc1OC` here?
**A.** inconclusive: 1.12 µM [fluorescent, side channel, partial curve, poor fit]

**Q.** For `CCOC(=O)N1CCN(CC(=O)Nc2ccc(Oc3ccccc3)cc2)CC1`, which Potency is on record?
**A.** inactive

**Q.** `Cc1c2oc3c(C)ccc(C(=O)N[C@@H]4C(=O)N[C@H](C(C)C)C(=O)N5CCC[C@H]5C(=O)N(C)CC(=O)N(C)[C@@H](C(C)C)C(=O)O[C@@H]4C)c3nc-2c(C(=O)N[C@@H]2C(=O)N[C@H](C(C)C)C(=O)N3CCC[C@H]3C(=O)N(C)CC(=O)N(C)[C@@H](C(C)C)C(=O)O[C@@H]2C)c(N)c1=O` (I: T[dV]P[Sar][NMeV] / II: T[dV]P[Sar][NMeV]; ester I:1-I:C, II:1-II:C; linker I:N-II:N via Actinocin(9to1)) was tested. Which Potency did it give?
**A.** inconclusive: 39.8 µM [quencher, side channel, full curve, poor fit]

**Q.** With `COc1ccc(C(CC(=O)O)NC(=O)Cc2ccccc2)cc1OC` (stereo unspecified) as the compound, how does the Potency read?
**A.** inactive

**Q.** With `Cc1nn(Cc2ccc(F)cc2)c(C)c1NC(=O)c1cnn2c1NC(c1ccccc1)CC2C(F)(F)F` (stereo unspecified) as the compound, how does the Potency read?
**A.** inactive

**Q.** `Oc1ccc(Cl)cc1CNc1cnc2ccccc2c1` was tested. Which Potency did it give?
**A.** inactive

**Q.** For `Cc1[nH][nH]c(=O)c1C(c1ccc(-c2cccc(Cl)c2)o1)c1c(C)[nH][nH]c1=O`, which Potency is on record?
**A.** inconclusive: 63.1 µM [inhibitor, single point]

**Q.** With `Cc1cccc(CN2CCC(Oc3ccc(C(=O)N4CCCC4)cc3)CC2)n1` as the compound, how does the Potency read?
**A.** inconclusive: 89.1 µM [inhibitor, single point]

**Q.** `CCc1nnc(NC(=O)c2cc(-c3ccccn3)nc3ccc(Br)cc23)s1` was tested. Which Potency did it give?
**A.** inconclusive: 14.1 µM [fluorescent, side channel, single point]

**Q.** For `COc1cc(/C=C2\SC(=Nc3cccnc3)NC2=O)cc(OC)c1OC`, which Potency is on record?
**A.** inconclusive: 31.6 µM [fluorescent, side channel, partial curve]

**Q.** With `COc1ccc(OC)c(/C=c2\sc3nc(-c4cccs4)nn3c2=O)c1` as the compound, how does the Potency read?
**A.** inconclusive: 70.8 µM [fluorescent, side channel, single point]

**Q.** How did the Potency turn out when `O=[N+]([O-])c1ccc(Sc2ccccc2Cl)nc1` was run?
**A.** inconclusive: 10 µM [fluorescent, side channel, full curve, poor fit]

**Q.** Which Potency does the source give for `On1onc2c3cc(-c4ccccc4)nc3ccc21` here?
**A.** inconclusive: 44.7 µM [quencher, side channel, partial curve]

**Q.** `Cc1ccc(C(=O)NC(=S)Nc2ccc(Oc3ccc(Cl)cc3)cc2)cc1` was tested. Which Potency did it give?
**A.** inconclusive: 50.1 µM [fluorescent, side channel, single point]

**Q.** How did the Potency turn out when `COc1ccccc1N1C(=O)CCC1(C#N)c1ccccc1` (stereo unspecified) was run?
**A.** inactive

**Q.** How did the Potency turn out when `COc1ccc(/C=C2\SC(=S)N(CCC(=O)Nc3cccc(C(=O)O)c3)C2=O)cc1` was run?
**A.** inconclusive: 17.8 µM [inhibitor, partial curve]

**Q.** Which Potency does the source give for `CCOC(=O)c1c(C)[nH]c(C(=O)N/N=C\c2ccccc2O)c1C` here?
**A.** inactive

**Q.** Which Potency does the source give for `COc1ccc(-c2onc3ccc(C(=O)/C=C/N(C)C)cc23)cc1` here?
**A.** inconclusive: 63.1 µM [fluorescent, single point]

**Q.** `OC(COCc1ccccc1)Cn1cnc2ccccc21` (stereo unspecified) was tested. Which Potency did it give?
**A.** inactive

**Q.** Which Potency does the source give for `COc1ccc(OCC(=O)NNC(=S)NC(=O)C2CCCCC2)cc1` here?
**A.** inactive

**Q.** Which Potency does the source give for `Cc1cc(=O)[nH]c(-n2[nH]c(C)cc2=O)n1` here?
**A.** inconclusive: 44.7 µM [inhibitor, partial curve]

**Q.** With `O=C(Nc1ccc2nc(-c3ccccc3)[nH]c2c1)c1ccco1` as the compound, how does the Potency read?
**A.** inactive

**Q.** Which Potency does the source give for `N#Cc1ccccc1NC(=S)NC(=O)C1CCC1` here?
**A.** inconclusive: 70.8 µM [fluorescent, side channel, partial curve]

**Q.** Which Potency does the source give for `N=C1/C(=C/c2cccs2)C(=O)N=C2SN=C(SCc3ccccc3)N12` here?
**A.** inconclusive: 3.55 µM [inhibitor, full curve]

**Q.** Which Potency does the source give for `CCOc1ccc(-n2c(-c3ccc(Br)cc3)c[n+]3c2CCCCC3)cc1` here?
**A.** inactive

**Q.** Which Potency does the source give for `COc1cc(/C=c2\s/c(=C\C(=O)C(C)(C)C)[nH]c2=O)cc(OC)c1OC` here?
**A.** inconclusive: 35.5 µM [fluorescent, side channel, partial curve]

**Q.** `C[C@H](NC(=O)C1CCN(S(=O)(=O)c2ccccc2)CC1)C(=O)NCc1ccccc1` was tested. Which Potency did it give?
**A.** inactive

**Q.** With `COc1ccc(C2NC(=O)C(C#N)=C(S)N2c2ccccc2)cc1OC` (stereo unspecified) as the compound, how does the Potency read?
**A.** inconclusive: 100 µM [inhibitor, partial curve, poor fit]

**Q.** Which Potency does the source give for `COc1ccccc1CC(=O)N(Cc1ccccc1)c1cccc(C)c1` here?
**A.** inconclusive: 10 µM [fluorescent, side channel, single point]

**Q.** `COC(=O)C1=C(C)N(Cc2ccccc2)C(=NCc2cccc(Cl)c2)N[C@H]1c1cccc(F)c1` was tested. Which Potency did it give?
**A.** inconclusive: 5.62 µM [quencher, side channel, full curve, poor fit]

**Q.** `S=C(Nc1ccc(Cl)cc1Cl)N1CCCC1` was tested. Which Potency did it give?
**A.** inactive

**Q.** Which Potency does the source give for `CCn1c(=O)c(C(=O)CN(C)Cc2cccc(OC)c2OC)c(N)n(Cc2ccccc2)c1=O` here?
**A.** inactive

**Q.** For `CCOC(=O)COn1c(=O)c(-c2cc3ccccc3o2)[n+]([O-])c2ccccc21`, which Potency is on record?
**A.** inconclusive: 39.8 µM [fluorescent, side channel, single point]

**Q.** With `CCCc1nnc(NC(=O)CCC(=O)NCc2ccccc2OC)s1` as the compound, how does the Potency read?
**A.** inconclusive: 14.1 µM [inhibitor, single point]

**Q.** `CCCCOc1ccc(-c2cc(C(F)(F)F)c(C#N)c(SCC(=O)O)n2)cc1` was tested. Which Potency did it give?
**A.** inconclusive: 89.1 µM [inhibitor, single point]

**Q.** How did the Potency turn out when `COc1cc(N2CCCC2)c(OC)cc1/C=C(/C#N)c1ccc(F)cc1` was run?
**A.** inactive
